# According to the supplement of paper PMC6411743:
# ± gives the standard deviation of the averaged measurements. The entries are a selection whose mix differs from that of the whole data set.
# Columns and labels:
# Assay in all cases: NP40-soluble protein abundance relative to vehicle (solubility fold change) (ratio); higher = more soluble protein in presence of ATP
# [1] = molecular target: T1, UniProt Q9H4L7 and related entries
# T1 sequence (whole entry): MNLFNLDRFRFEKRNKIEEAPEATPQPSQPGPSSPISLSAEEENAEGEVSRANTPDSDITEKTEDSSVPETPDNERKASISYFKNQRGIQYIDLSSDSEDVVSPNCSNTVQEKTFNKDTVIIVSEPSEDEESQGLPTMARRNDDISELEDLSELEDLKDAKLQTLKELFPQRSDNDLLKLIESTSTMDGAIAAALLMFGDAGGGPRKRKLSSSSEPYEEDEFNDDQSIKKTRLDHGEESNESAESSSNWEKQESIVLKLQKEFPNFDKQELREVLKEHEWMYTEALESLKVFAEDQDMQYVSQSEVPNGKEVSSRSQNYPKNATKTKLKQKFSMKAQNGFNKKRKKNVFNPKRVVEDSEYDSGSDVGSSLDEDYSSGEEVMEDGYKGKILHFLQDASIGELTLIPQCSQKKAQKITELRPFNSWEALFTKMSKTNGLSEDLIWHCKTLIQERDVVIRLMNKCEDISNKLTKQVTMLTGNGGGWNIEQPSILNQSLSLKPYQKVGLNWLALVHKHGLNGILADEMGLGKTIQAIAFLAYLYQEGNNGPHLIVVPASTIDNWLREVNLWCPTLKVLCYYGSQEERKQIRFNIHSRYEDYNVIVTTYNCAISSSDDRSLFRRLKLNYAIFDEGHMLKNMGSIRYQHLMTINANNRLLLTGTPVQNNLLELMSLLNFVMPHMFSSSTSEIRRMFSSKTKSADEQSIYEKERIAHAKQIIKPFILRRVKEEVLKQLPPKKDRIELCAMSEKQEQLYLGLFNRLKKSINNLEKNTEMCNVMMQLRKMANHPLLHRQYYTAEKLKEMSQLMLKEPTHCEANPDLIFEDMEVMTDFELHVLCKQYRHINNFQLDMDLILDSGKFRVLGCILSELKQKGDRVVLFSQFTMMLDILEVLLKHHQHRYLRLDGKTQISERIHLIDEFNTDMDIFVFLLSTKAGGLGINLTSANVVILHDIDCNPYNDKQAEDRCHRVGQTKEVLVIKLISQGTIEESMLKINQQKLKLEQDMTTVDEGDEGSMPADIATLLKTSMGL
# Method in brief: (§1)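 Jurkat crude lysate prepared with a Dounce homogeniser was treated at eight concentrations spanning 0.1 to 10 mM, 10 min at room temperature then 3 min at 37 °C. Solubilisation with 0.8% NP40 and benzonase and ultracentrifugation preceded TMT labelling of the supernatant for LC-MS/MS. Fold change against the detergent-processed vehicle was determined per replicate from vsn-normalised intensities, across three independent experiments.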
# [2] = molecular target: T2, UniProt Q9H6R7 and related entries
# T2 sequence (whole entry): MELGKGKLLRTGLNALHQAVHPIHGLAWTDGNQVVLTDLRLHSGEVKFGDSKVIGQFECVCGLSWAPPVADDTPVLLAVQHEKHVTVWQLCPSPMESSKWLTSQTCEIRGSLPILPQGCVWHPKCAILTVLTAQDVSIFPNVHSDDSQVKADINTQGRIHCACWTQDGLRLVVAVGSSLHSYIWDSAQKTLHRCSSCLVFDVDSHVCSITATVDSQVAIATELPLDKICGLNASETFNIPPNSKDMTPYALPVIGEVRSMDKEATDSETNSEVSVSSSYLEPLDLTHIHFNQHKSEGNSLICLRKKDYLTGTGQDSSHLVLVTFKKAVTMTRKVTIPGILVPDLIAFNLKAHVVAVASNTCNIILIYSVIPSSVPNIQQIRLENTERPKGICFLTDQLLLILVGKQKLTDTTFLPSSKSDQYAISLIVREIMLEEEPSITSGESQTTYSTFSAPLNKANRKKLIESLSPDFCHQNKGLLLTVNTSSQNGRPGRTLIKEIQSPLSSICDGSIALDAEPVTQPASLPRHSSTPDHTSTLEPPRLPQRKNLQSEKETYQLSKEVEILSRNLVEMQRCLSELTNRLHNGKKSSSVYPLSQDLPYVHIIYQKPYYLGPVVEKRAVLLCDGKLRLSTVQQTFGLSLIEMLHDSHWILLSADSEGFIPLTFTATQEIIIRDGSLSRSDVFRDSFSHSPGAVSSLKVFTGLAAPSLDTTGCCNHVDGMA
# Method in brief: as §1
# [3] = molecular target: T3, UniProt Q9H7X7 and related entries
# T3 sequence (whole entry): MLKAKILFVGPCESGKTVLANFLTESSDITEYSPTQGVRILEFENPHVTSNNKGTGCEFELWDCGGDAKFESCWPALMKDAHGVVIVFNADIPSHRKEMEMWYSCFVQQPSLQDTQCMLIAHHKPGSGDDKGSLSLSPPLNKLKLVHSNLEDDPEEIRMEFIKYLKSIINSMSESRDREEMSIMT
# Method in brief: as §1
# [4] = molecular target: T4, UniProt Q9H7Z6 and related entries
# T4 sequence (whole entry): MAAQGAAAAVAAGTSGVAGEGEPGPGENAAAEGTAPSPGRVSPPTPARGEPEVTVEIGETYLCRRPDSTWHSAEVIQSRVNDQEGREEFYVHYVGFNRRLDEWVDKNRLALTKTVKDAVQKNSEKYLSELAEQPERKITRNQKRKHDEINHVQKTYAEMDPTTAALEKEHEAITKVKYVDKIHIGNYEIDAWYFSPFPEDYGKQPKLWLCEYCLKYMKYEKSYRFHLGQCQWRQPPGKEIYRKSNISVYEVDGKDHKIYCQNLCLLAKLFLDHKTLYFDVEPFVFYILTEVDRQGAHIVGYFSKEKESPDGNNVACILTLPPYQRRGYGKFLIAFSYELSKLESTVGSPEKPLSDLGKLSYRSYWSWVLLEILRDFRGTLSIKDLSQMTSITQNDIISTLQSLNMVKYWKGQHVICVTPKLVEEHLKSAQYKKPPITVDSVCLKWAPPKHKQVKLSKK
# Method in brief: as §1
# [5] = molecular target: T5, UniProt Q9HAS0 and related entries
# T5 sequence (whole entry): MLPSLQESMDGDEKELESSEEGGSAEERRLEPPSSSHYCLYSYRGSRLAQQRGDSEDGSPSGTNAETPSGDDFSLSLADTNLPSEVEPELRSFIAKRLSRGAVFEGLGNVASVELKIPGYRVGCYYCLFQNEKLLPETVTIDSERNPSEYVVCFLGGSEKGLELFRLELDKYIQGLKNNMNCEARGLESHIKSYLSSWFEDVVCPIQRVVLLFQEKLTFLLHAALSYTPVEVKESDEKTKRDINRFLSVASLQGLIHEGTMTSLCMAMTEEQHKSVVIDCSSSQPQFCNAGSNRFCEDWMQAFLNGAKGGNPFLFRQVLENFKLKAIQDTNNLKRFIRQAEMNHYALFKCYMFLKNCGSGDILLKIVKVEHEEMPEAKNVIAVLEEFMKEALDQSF
# Method in brief: as §1
structure (smiles),measurement,setting,value
Nc1ncnc2c1ncn2[C@@H]1O[C@H](COP(=O)(O)OP(=O)(O)OP(=O)(O)O)[C@@H](O)[C@H]1O [adenosine triphosphate],NP40-soluble protein abundance,[1]; concentration: 6mM,0.971 ± 0.04
same,NP40-soluble protein abundance,[1]; concentration: 8mM,0.943 ± 0.028
same,NP40-soluble protein abundance,[1]; concentration: 10mM,0.947 ± 0.024
same,NP40-soluble protein abundance,[2]; concentration: 1mM,0.995 ± 0.03
same,NP40-soluble protein abundance,[2]; concentration: 2mM,0.977 ± 0.15
same,NP40-soluble protein abundance,[2]; concentration: 4mM,0.934 ± 0.16
same,NP40-soluble protein abundance,[2]; concentration: 6mM,1 ± 0.14
same,NP40-soluble protein abundance,[2]; concentration: 8mM,0.942 ± 0.21
same,NP40-soluble protein abundance,[2]; concentration: 10mM,1.03 ± 0.14
same,NP40-soluble protein abundance,[3]; concentration: 1mM,1.03 ± 0.073
same,NP40-soluble protein abundance,[3]; concentration: 2mM,1.04 ± 0.026
same,NP40-soluble protein abundance,[3]; concentration: 4mM,1.03 ± 0.065
same,NP40-soluble protein abundance,[3]; concentration: 6mM,1.04 ± 0.066
same,NP40-soluble protein abundance,[3]; concentration: 8mM,1.01 ± 0.014
same,NP40-soluble protein abundance,[3]; concentration: 10mM,1.03 ± 0.042
same,NP40-soluble protein abundance,[4]; concentration: 1mM,1.06 ± 0.025
same,NP40-soluble protein abundance,[4]; concentration: 2mM,1.08 ± 0.042
same,NP40-soluble protein abundance,[4]; concentration: 4mM,1.07 ± 0.014
same,NP40-soluble protein abundance,[4]; concentration: 6mM,1.061 ± 0.0093
same,NP40-soluble protein abundance,[4]; concentration: 8mM,1.12 ± 0.039
same,NP40-soluble protein abundance,[4]; concentration: 10mM,1.13 ± 0.055
same,NP40-soluble protein abundance,[5]; concentration: 1mM,1.04 ± 0.08
same,NP40-soluble protein abundance,[5]; concentration: 2mM,1.05 ± 0.047
same,NP40-soluble protein abundance,[5]; concentration: 4mM,1.06 ± 0.028
same,NP40-soluble protein abundance,[5]; concentration: 6mM,0.985 ± 0.019
same,NP40-soluble protein abundance,[5]; concentration: 8mM,1.11 ± 0.037
same,NP40-soluble protein abundance,[5]; concentration: 10mM,1.12 ± 0.06

# Some of the entries above, reformatted:
structure (smiles)	measurement	setting	value
Nc1ncnc2c1ncn2[C@@H]1O[C@H](COP(=O)(O)OP(=O)(O)OP(=O)(O)O)[C@@H](O)[C@H]1O [adenosine triphosphate]	NP40-soluble protein abundance	[2]; concentration: 1mM	0.995 ± 0.03
same	NP40-soluble protein abundance	[2]; concentration: 6mM	1 ± 0.14
